Data as given in PubChem BioAssay AID504744 (Drosophila RNAi Screening Center, 2011)
Test: 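Identify dsRNAs that increase or decrease phospho-dAkt after insulin treatment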 (primary screen). Cell system: Drosophila Kc167 cells. Knock-down reagent: long dsRNA against Drosophila genes, 250 ng dsRNA per well of a 384-well plate. Duration: 3 days of knock-down, then overnight serum-free starvation before stimulation. Challenge: bovine insulin at 387 nM for 10 minutes after 12 h without serum. Detection: 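In-cell antibody fluorescence for phospho-dAkt in each well over DNA-dye signal, with log2 residuals expressed as z-scores adjusted for cell count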. Active means: 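Under insulin, a gene counts as a hit if the average z-score of two replicates lies above 2.5 or below -2.5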.
The deposit covers about 23,000 reagents; shown is an unselected part of those that have a named target and a result. In the full data, 98 (0.43%) are marked active. 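Only hit calls are given; the phospho-dAkt signals, z-scores and hit direction were not deposited.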 A plus sign joins genes that one reagent is predicted to hit. No sequences are given here.

Which result is listed for TwdlW [DRSC15540]?
Outcome: inactive

What is on record for meep [DRSC07948]?
Outcome: inactive

Which result is listed for mora [DRSC16594]?
Outcome: inactive

For Magi [DRSC04247], what was measured?
Outcome: inactive

For Magi [DRSC04451], what was measured?
Outcome: inactive

How did the screen score CG8547 [DRSC07211]?
Outcome: inactive

With Vha16-1 [DRSC05020], what was measured?
Outcome: inactive

What is on record for CG31301 [DRSC22164]?
Outcome: inactive

For CG30031 + deltaTry + CG30025 + 1 more [DRSC21262], what does the deposit list?
Outcome: inactive

With CG15283 [DRSC01980], how do the results read?
Outcome: inactive

Which result is listed for baf [DRSC03051]?
Outcome: inactive

How did the screen score Plp [DRSC10006]?
Outcome: inactive

Which result is listed for Plp [DRSC10333]?
Outcome: inactive

What did the screen give for Plp [DRSC10700]?
Outcome: inactive

Which result is listed for Cyp313a1 [DRSC16624]?
Outcome: inactive

What is on record for Daao2 [DRSC02135]?
Outcome: inactive

For Pyroxd1 [DRSC02098], what was measured?
Outcome: inactive

What did the screen give for CG16965 [DRSC02547]?
Outcome: inactive

For sprt [DRSC07323], how do the results read?
Outcome: inactive

How did the screen score CG13563 [DRSC22153]?
Outcome: inactive

What is on record for Acsx1L [DRSC16014]?
Outcome: inactive

How did the screen score CG32813 [DRSC17948]?
Outcome: inactive

For Swt1 [DRSC20028], how do the results read?
Outcome: inactive

Individual results from the entries so far:
Result of CG15283 [DRSC01980] in “Outcome”: inactive
CG32813 [DRSC17948], Outcome = inactive
Entry for Acsx1L [DRSC16014] under “Outcome”: inactive
